Earlier results in patent US20130202706A1 (DRUGGABILITY TECHNOLOGIES IP HOLDCO (JERSEY) LTD., priority 2010, published 2013).

lower plasma concentrations (Cmax and AUC) following evening administration compared with morning (evening versus morning): approximately 30% | decrease of extent of drug absorption by food (AUC) (with food): ~9% | decrease of rate of drug absorption by food (Cmax) (with food): approximately 25%
Structure (SMILES): CC(C)c1c(C(=O)Nc2ccccc2)c(-c2ccccc2)c(-c2ccc(F)cc2)n1CC[C@@H](O)C[C@@H](O)CC(=O)O [Atorvastatin]
